Results deposited as PubChem BioAssay AID1259308 (NCATS, 2017)
Shown is a random part of about 59,000 deposited reagents. About 1,510 of them (2.6%) count as active. 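Calls use total luciferase alone and ignore viability, so some active siRNAs may act by altering cell number.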 Reagents against one gene are numbered here. Further read-outs or replicates are left out here.

Purpose: 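Genes whose loss raises luciferase production in HEK293 cells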 (primary screen)
System: human HEK293 embryonic kidney cells stably expressing firefly luciferase (HEK-CMV-Luc2-Hygro)
Reagent: single siRNA against human genes, 0.8 pmol siRNA per well
Time to read-out: 72 h
Measured: 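Reporter luminescence and viable-cell signal on separate replicate plates, given as percent of non-targeting control and median/MAD z-scores, plus per-cell luciferase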
Scale: total luciferase, z-score and total luciferase, % of control: higher = more reporter protein produced
Active means: 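Active when the median/MAD z-score for overall luciferase is greater than 3; a gene was taken forward for validation with new siRNAs if at least two of its three siRNAs passed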
Calls: active = raised luciferase; inactive = no rise

After knock-down of KRTAP5-11 #1, the screen gave total luciferase, z-score -0.0447; total luciferase, % of control 81; inactive.
Depletion of KRTAP5-11 #2 resulted in: total luciferase, z-score -0.378; total luciferase, % of control 74.4; inactive.
Against KRTAP5-11 #3 the deposit lists total luciferase, z-score 1.02; total luciferase, % of control 102; inactive.
Depletion of UTS2 #1 gave: total luciferase, z-score 0.918; total luciferase, % of control 100; inactive.
With knock-down of UTS2 #2 the results were total luciferase, z-score -0.7; total luciferase, % of control 68; inactive.
For UTS2 #3, the entry reads total luciferase, z-score 0.443; total luciferase, % of control 90.7; inactive.
After knock-down of MED7 #1 the results were total luciferase, z-score -2.24; total luciferase, % of control 37.3; inactive.
For MED7 #2 the deposit lists total luciferase, z-score -2.4; total luciferase, % of control 34.2; inactive.
Knock-down of MED7 #3 resulted in: total luciferase, z-score -1.37; total luciferase, % of control 54.6; inactive.
VPS26B #1 gave total luciferase, z-score -0.749; total luciferase, % of control 67; inactive.
VPS26B #2 scored total luciferase, z-score -0.772; total luciferase, % of control 66.5; inactive.
After knock-down of VPS26B #3, the record shows total luciferase, z-score -0.277; total luciferase, % of control 76.4; inactive.

3 successive records from above, quoted:
UTS2 #1 — total luciferase, z-score: 0.918; total luciferase, % of control: 100; outcome: inactive
UTS2 #2 — total luciferase, z-score: -0.7; total luciferase, % of control: 68; outcome: inactive
UTS2 #3 — total luciferase, z-score: 0.443; total luciferase, % of control: 90.7; outcome: inactive

The results go on:
With knock-down of HSPB6 #1, the record shows total luciferase, z-score 1.15; total luciferase, % of control 105; inactive.
Against HSPB6 #2 the deposit lists total luciferase, z-score -0.24; total luciferase, % of control 77.1; inactive.
HSPB6 #3 gave total luciferase, z-score 0.408; total luciferase, % of control 90; inactive.
Silencing of ZNF114 #1 gave: total luciferase, z-score -1.09; total luciferase, % of control 60.3; inactive.
ZNF114 #2 scored total luciferase, z-score 0.395; total luciferase, % of control 89.7; inactive.
Knock-down of ZNF114 #3 resulted in: total luciferase, z-score -0.393; total luciferase, % of control 74.1; inactive.
Against GPN1 #1, the entry reads total luciferase, z-score -2.69; total luciferase, % of control 28.3; inactive.
GPN1 #2 showed total luciferase, z-score -1.92; total luciferase, % of control 43.7; inactive.
Depletion of GPN1 #3 gave: total luciferase, z-score -1.13; total luciferase, % of control 59.5; inactive.
Knock-down of NDUFAF8 #1 resulted in: total luciferase, z-score -1.57; total luciferase, % of control 50.8; inactive.
Knock-down of NDUFAF8 #2 gave: total luciferase, z-score 3.12; total luciferase, % of control 144; active.
Against NDUFAF8 #3, the values are total luciferase, z-score 1.21; total luciferase, % of control 106; inactive.
For RAPGEF5 #1, the entry reads total luciferase, z-score 0.0127; total luciferase, % of control 82.1; inactive.
For RAPGEF5 #2 the deposit lists total luciferase, z-score 0.0468; total luciferase, % of control 82.8; inactive.
For RAPGEF5 #3, the values are total luciferase, z-score -0.558; total luciferase, % of control 70.8; inactive.
After knock-down of TRPC4 #1, the record shows total luciferase, z-score 0.448; total luciferase, % of control 90.8; inactive.
Depletion of TRPC4 #2 resulted in: total luciferase, z-score -0.131; total luciferase, % of control 79.3; inactive.
With knock-down of TRPC4 #3 the results were total luciferase, z-score -0.183; total luciferase, % of control 78.2; inactive.
For OR5K4 #1, the values are total luciferase, z-score -1.94; total luciferase, % of control 43.3; inactive.
Against OR5K4 #2, the values are total luciferase, z-score 1.56; total luciferase, % of control 113; inactive.
For OR5K4 #3, the entry reads total luciferase, z-score -1.48; total luciferase, % of control 52.4; inactive.
